Results: publication doi:10.1101/2025.06.17.660196
These are yes or no findings as the source states them, for the method shown. In cells and extracts the contact can be indirect. Some binding calls cover weakened binding; strength is not graded here. Tags and fused reporters may be left off the sequences shown.

Target: T1, FLAG-Strep-Med19 (endogenous 3xFLAG/Twin Strep tagged Med19) (rat (endogenous in INS-1)) (UniProt D3ZAP1)
T1 sequence: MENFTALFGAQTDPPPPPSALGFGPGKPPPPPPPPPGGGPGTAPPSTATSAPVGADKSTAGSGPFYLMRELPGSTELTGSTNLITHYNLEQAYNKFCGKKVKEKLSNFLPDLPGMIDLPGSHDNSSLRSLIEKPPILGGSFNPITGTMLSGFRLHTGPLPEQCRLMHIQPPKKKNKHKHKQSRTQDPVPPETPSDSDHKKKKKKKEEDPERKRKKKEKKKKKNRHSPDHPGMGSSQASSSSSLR
Test: co-IP; anti-FLAG (M2 agarose) immunoprecipitates of endogenous FLAG-Strep-Med19 from INS-1 extracts, Med14 WT and Med14 S983A knock-in lines; immunoblot; cells treated with FSK, H-89 or Ex-4 (10 nM) as indicated

B1: Cdk8 (protein, UniProt A0A8I5ZVW8 1-507)
chain: MDYDFKVKLSSERERVEDLFEYEGCKVGRGTYGHVYKAKRKDGKDDKDYALKQIEGTGISMSACREIALLRELKHPNVISLQKVFLSHADRKVWLLFDYAEHDLWHIIKFHRASKANKKPVQLPRGMVKSLLYQILDGIHYLHANWVLHRDLKPANILVMGEGPERGRVKIADMGFARLFNSPLKPLADLDPVVVTFWYRAPELLLGARHYTKAIDIWAIGCIFAELLTSEPIFHCRQEDIKTSNPYHHDQLDRIFNVMGFPADKDWEDIKKMPEHSTLMKDFRRNTYTNCSLIKYMEKHKVKPDSKAFHLLQKLLTMDPIKRITSEQAMQDPYFLEDPLPTSDVFAGCQIPYPKREFLTEEEPDEKGDKKNQQQQQGNNHTNGTGHPGNQDSGHAQGPPLKKVRVVPPTTTSAFQSTCCLSQPWTKHITAPEQHGILSYLPAASTVLTSDTSVLSCAGVCPCTVAHAAGLAAALCGNLVWAMRMYCTTTSSQCPVAEFHSCHRSGR
In the case of B1, the binding is reported as “binds”.
